These results are taken from PMC12730575.

By UniProt entry, the sequences of proteins in these tests, tags left out.
UniProt P17302: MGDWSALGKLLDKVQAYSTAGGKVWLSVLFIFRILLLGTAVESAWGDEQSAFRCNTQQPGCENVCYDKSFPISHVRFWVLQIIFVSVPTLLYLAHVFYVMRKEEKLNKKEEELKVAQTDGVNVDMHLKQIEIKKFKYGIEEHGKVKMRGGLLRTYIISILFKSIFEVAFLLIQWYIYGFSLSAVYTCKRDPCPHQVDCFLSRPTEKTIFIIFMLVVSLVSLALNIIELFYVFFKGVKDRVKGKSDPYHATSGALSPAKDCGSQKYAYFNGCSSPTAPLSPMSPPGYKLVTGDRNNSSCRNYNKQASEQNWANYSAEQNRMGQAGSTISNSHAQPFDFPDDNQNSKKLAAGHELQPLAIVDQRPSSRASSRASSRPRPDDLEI

The target in this assay is Connexin 43 (human (endogenous in human breast cancer cell lines; line of the co-IP not stated)) (UniProt P17302). The experiment in a line: co-IP; antibody (Cx43 CST#3512 or Rab31 proteintech#15485-1-AP; IgG as control) on protein A/G magnetic beads, protein supernatant of lysed cells rotated at 4 °C overnight, washed with PBST, Western blot; cell line not stated.

These are yes or no findings as the source states them, for the method shown. In cells and extracts the contact can be indirect. Some results given as binding are weak or reduced against the parent protein; the word gives no strength.

B1: Ras-related protein Rab-31 (protein, UniProt Q13636 1-195)
chain: MMAIRELKVCLLGDTGVGKSSIVCRFVQDHFDHNISPTIGASFMTKTVPCGNELHKFLIWDTAGQERFHSLAPMYYRGSAAAVIVYDITKQDSFYTLKKWVKELKEHGPENIVMAIAGNKCDLSDIREVPLKDAKEYAESIGAIVVETSAKNAINIEELFQGISRQIPPLDPHENGNNGTIKVEKPTMQASRRCC
B1: the binding result is on record as “binds”.
